# Test results as given in the supplement of paper PMC11348887.
# Structures can show the parent of a compound that is named as a salt. Some of the results follow. Small differences around the control level are noise.
# What was measured:
# Settings in all cases: 5 µM; treatment: days 7-14 after plating, readout day 21
# [1] = test system: hPSC-derived cortical neurons (WA09); experiment: nucleus area z-score vs screen plate; higher = larger nuclei (more mature)
# [2] = test system: hPSC-derived cortical neurons (WA09); experiment: total neurite length per nucleus (MAP2) z-score; higher = more neurite growth
# [3] = test system: hPSC-derived cortical neurons (WA09); experiment: nucleus roundness z-score vs screen plate; higher = rounder nuclei (more mature)
# [4] = test system: hPSC-derived cortical neurons (WA09); experiment: KCl-induced FOS+/EGR-1+ double-positive nuclei fraction z-score (KCl minus unstimulated); higher = stronger activity-induced IEG response
SMILES,nucleus area z-score [1],total neurite length per nucleus (z-score) [2],nucleus roundness z-score [3],KCl-induced FOS+/EGR-1+ double-positive nuclei fraction z-score [4]
CCC1(c2ccc(N)cc2)CCC(=O)NC1=O (stereo unspecified) [Aminoglutethimide],1.03,0.15,0.159,2.03
CN1CCC(c2c[nH]c3ccc(O)cc23)CC1,0.0373,0.514,0.525,0.00132
CN(C)Cc1c[nH]c2ccccc12 [Gramine],-1.25,-0.235,0.116,0.235
CC(NC(C)(C)C)C(=O)c1cccc(Cl)c1 (stereo unspecified) [Amfebutamone HCl],-0.597,-1.55,-2.56,-0.734
N[C@@H]1C[C@H]1c1ccccc1 [Tranylcypromine (2-PCPA) HCl],1.68,1.22,0.596,4.83
NC(=O)CN1CCCC1=O [Piracetam],0.776,0.833,1.47,-0.306
NC(=O)CN1CC(O)CC1=O (stereo unspecified) [Oxiracetam],-0.0651,0.142,-0.354,0.903
CN1CCN(c2nc3ccccc3nc2Cl)CC1,-0.0267,-0.429,0.0328,-0.308
O=[N+]([O-])O[C@@H]1CO[C@H]2[C@@H]1OC[C@@H]2O [Isosorbide Mononitrate],0.374,0.00495,-0.0915,0.27
COc1ccc(CC2NCCc3cc(OC)c(OC)cc32)cc1OC (stereo unspecified) [Tetrahydropapaverine HCl],0.443,1.15,0.259,0.254
Cc1sc2c(c1C)C(c1ccc(Cl)cc1)=N[C@@H](CC(N)=O)c1nnc(C)n1-2,-6.07,-0.815,-3.8,-0.817
O=C1CC[C@@]2(O)[C@H]3Cc4ccc(O)c5c4[C@@]2(CCN3CC2CC2)[C@H]1O5 [Naltrexone HCl],-0.824,0.3,-0.191,-0.0799
CN1[C@@H]2CC[C@H]1C[C@@H](OC(=O)[C@H](CO)c1ccccc1)C2 [Hyoscyamine],-15.3,-4.69,-7.03,-0.843
O=S(=O)(CC1CS1)c1ccc(Oc2ccccc2)cc1 (stereo unspecified),0.303,0.0971,0.242,0.00963
Cc1cccc(C(C)c2c[nH]cn2)c1C (stereo unspecified) [Medetomidine HCl],0.489,0.212,-0.0345,-0.598
COC[C@H]1OC(=O)c2coc3c2[C@@]1(C)C1=C(C3=O)[C@@H]2CCC(=O)[C@@]2(C)C[C@H]1OC(C)=O [Wortmannin],0.0147,1.31,-0.0479,1.1
NC[C@H](CC(=O)O)c1ccc(Cl)cc1 [(R)-baclofen],2.2,-2.7,-3.29,-0.41
C=C[C@H]1CN2CC[C@H]1C[C@H]2[C@H](O)c1ccnc2ccccc12 [Cinchonidine],0.177,1.58,-0.0105,0.306
CC[C@@H](C(N)=O)N1CCCC1=O [Levetiracetam],-0.458,0.544,0.329,0.4
C[C@H]1CNCCc2ccc(Cl)cc21 [Lorcaserin HCl],0.595,0.698,0.32,1.67
CN(CC[C@H](N)CC(=O)N[C@@H]1C=C[C@@H](n2ccc(N)nc2=O)O[C@H]1C(=O)O)C(=N)N [Blasticidin S HCl],-12,-5.75,-10.3,-0.979
CNC1CC(N)C(O)C(OC2OC(CO)C(O)C3OC4(OC(C(N)CO)C(O)C(O)C4O)OC23)C1O (stereo unspecified) [Hygromycin B],-3.09,-4.76,-1.68,-0.596

SMILES,nucleus area z-score [1],total neurite length per nucleus (z-score) [2],nucleus roundness z-score [3],KCl-induced FOS+/EGR-1+ double-positive nuclei fraction z-score [4]
CNCC(O)c1ccc(O)cc1 (stereo unspecified) [Synephrine HCl],0.799,1.95,1.08,1.49
C1=C2CCCN[C@H]2[C@@H]2C[C@H]1[C@H]1CCCCN1C2 [Aloperine],-0.739,0.42,0.479,0.0226
CCOC(=O)c1cncn1[C@H](C)c1ccccc1 [Etomidate],0.926,-0.587,-0.495,-0.314
CN1c2ccccc2C(NCCCCCCC(=O)O)c2ccc(Cl)cc2S1(=O)=O (stereo unspecified) [Tianeptine sodium],1.8,2.92,0.359,-0.325
Oc1cc(Cl)ccc1Oc1ccc(Cl)cc1Cl [Triclosan],-0.188,-0.0206,0.0801,0.328
C[C@](O)(COc1ccc(C#N)cc1)C(=O)Nc1ccc(C#N)c(C(F)(F)F)c1,0.692,-0.0646,0.00021,0.817
c1cc2c(cc1[C@H]1OC[C@H]3[C@@H]1CO[C@@H]3c1ccc3c(c1)OCO3)OCO2 [Sesamin],0.0273,-0.17,-0.349,0.912
[O-][n+]1ccccc1[S-].[O-][n+]1ccccc1[S-].[Zn+2] [Zinc Pyrithione],-3.8,-1.13,-0.636,-0.277
c1ccc2c(c1)sc1ccccc12 [Dibenzothiophene],-0.385,-0.24,-0.0499,0.806
C[C@@H]1CC[C@H]2[C@@H](C)C(=O)O[C@@H]3O[C@@]4(C)CC[C@@H]1[C@]32OO4 [Artemisinin],0.595,0.066,0.258,-1.35
CC(=O)OC(C)(C)/C=C/C(=O)[C@](C)(O)[C@H]1[C@H](O)C[C@@]2(C)[C@@H]3CC=C4[C@H](C[C@H](O)C(=O)C4(C)C)[C@]3(C)C(=O)C[C@]12C [Cucurbitacin B],-11.7,-2.59,-5.8,-0.254
CN[C@@H]1C[C@H]2O[C@@](C)([C@@H]1OC)n1c3ccccc3c3c4c(c5c6ccccc6n2c5c31)C(=O)NC4 [Staurosporine],-9.29,-3,-4.06,-0.813
CCc1cc2c(s1)-n1c(C)nnc1CN=C2c1ccccc1Cl [Etizolam],-0.6,-1.02,-0.572,-0.00833
CNCC(O)c1ccc(O)cc1 (stereo unspecified) [Synephrine],-0.0238,-0.331,-0.0708,0.718
CCN(C)C(=O)Oc1cccc([C@H](C)N(C)C)c1 [Rivastigmine Tartrate],-0.155,0.337,-0.218,-0.855
C[C@]12CC[C@H](O)CC1=CC[C@@H]1[C@@H]2CC[C@]2(C)C(=O)CC[C@@H]12 [Dehydroepiandrosterone (DHEA)],-0.411,0.832,0.366,0.833
C=C1CC[C@@]2(O)[C@H]3Cc4ccc(O)c5c4[C@@]2(CCN3CC2CC2)[C@H]1O5 [Nalmefene HCl],0.0976,0.487,0.111,0.817
O=C(O)c1nn(Cc2ccc(Cl)cc2Cl)c2ccccc12 [Lonidamine],2.9,-0.0807,-0.108,0.057
O=c1[nH]c2ccc(Cl)cc2c(N[C@@H]2CN3CCC2CC3)c1-c1nc2ccccc2[nH]1,-13.8,-5.53,-3.5,5.21
CCCN1CCO[C@@H]2c3cc(O)ccc3OC[C@H]21,0.947,0.405,0.56,0.838
COc1ccc(N(C(=O)Oc2c(C)cccc2C)c2ccnc(Nc3ccc(N4CCN(C)CC4)cc3)n2)c(OC)c1,0.537,1.3,0.222,-0.375

# Another view of part of the listing above.
SMILES	nucleus area z-score [1]	total neurite length per nucleus (z-score) [2]	nucleus roundness z-score [3]	KCl-induced FOS+/EGR-1+ double-positive nuclei fraction z-score [4]
C1=C2CCCN[C@H]2[C@@H]2C[C@H]1[C@H]1CCCCN1C2 [Aloperine]	-0.739	0.42	0.479	0.0226
CCOC(=O)c1cncn1[C@H](C)c1ccccc1 [Etomidate]	0.926	-0.587	-0.495	-0.314
